Positions count from the first letter of the chain named. These are yes or no findings as the source states them, for the method shown. Some results given as binding are weak or reduced against the parent protein; the word gives no strength.
B1: F309#SSM010 (antibody, V domains shown)
VH: EVQLLESGGGLVQPGGSLRLSCAASGFTFSSYDMSWVRQAPGKGLEWVSGIYSGDGSIYYADSVKGRFTISRDNSKNTLYLQMNSLRAEDTAVYYCAKDAPTNEMSRFDYWGQGTLVTVSS
VL: QSVLTQPPSASGTPGQRVTISCSGSSSNIGNNYVSWYQQLPGTAPKLLIYADSKRPSGVPDRFSGSKSGTSASLAISGLRSEDEADYYCASWDYSLEGYVFGGGTKLTVL
B2: F309#SSM009 (antibody, V domains shown)
VH: B1 VH
VL: B1 VL with E97D
B3: F309#SSM023 (antibody, V domains shown)
VH: B1 VH with A100G, T102M
VL: B1 VL with E97S
notes: Combination variant of F309; also called #SSM23
B4: F309#SSM024 (antibody, V domains shown)
VH: B1 VH with A100G, M105I
VL: B1 VL with E97S
notes: Combination variant of F309; also called #SSM24
B5: F309#SSM034 (antibody, V domains shown)
VH: B1 VH with T102M, M105I
VL: B1 VL with E97S
notes: Combination variant of F309; also called #SSM34
B6: F309#SSM234 (antibody, V domains shown)
VH: B1 VH with A100G, T102M, M105I
VL: B1 VL with E97S
notes: Combination variant of F309
B7: F309#SSM026 (antibody, V domains shown)
VH: B1 VH with A100G, M105E
VL: B1 VL with E97S
B8: F309#SSM036 (antibody, V domains shown)
VH: B1 VH with T102M, M105E
VL: B1 VL with E97S

Amino acid sequences for entries named in this document (tags omitted). A change or cut given only in a name is not applied to a line headed by its entry.
UniProt P22607: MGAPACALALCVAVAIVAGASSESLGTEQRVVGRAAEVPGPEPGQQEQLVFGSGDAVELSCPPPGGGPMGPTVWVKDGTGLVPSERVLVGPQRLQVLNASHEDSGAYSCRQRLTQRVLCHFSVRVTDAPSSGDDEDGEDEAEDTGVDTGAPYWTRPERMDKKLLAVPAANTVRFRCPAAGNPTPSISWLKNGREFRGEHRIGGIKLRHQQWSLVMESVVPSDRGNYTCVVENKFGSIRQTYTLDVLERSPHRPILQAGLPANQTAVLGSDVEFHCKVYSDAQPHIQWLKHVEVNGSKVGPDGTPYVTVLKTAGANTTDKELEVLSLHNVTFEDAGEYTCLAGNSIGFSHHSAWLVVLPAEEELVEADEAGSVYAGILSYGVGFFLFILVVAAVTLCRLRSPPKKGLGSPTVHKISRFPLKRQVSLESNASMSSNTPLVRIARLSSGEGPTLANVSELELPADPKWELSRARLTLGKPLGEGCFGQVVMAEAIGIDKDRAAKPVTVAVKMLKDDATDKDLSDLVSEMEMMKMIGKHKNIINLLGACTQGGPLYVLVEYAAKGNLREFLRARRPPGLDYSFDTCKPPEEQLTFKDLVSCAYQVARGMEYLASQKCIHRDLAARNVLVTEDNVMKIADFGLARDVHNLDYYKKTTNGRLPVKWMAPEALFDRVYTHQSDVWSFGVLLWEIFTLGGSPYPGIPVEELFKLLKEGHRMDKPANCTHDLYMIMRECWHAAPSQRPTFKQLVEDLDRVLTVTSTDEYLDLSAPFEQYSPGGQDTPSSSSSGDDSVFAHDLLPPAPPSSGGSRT

Molecular target: FGFR3 recombinant protein (isoform not given) (Homo sapiens (Human)) (UniProt P22607)
Assay: affinity ELISA

binding, binds:
B1
B2

Molecular target: FGFR3 recombinant protein (isoform not given) (Homo sapiens (Human)) (UniProt P22607)
Assay: ELISA

binding, binds:
B3
B4
B5
B6
B7
B8

From patent US20240101684A1 (AIMED BIO, published 2024)
